Test [1] addresses T1, rSmTAChE (Schistosoma mansoni, UniProt A0A3Q0KMM5). The test can be described thus: biochemical. To be noted: read-out: rSmTAChE HTS Inhibition (Ave, %).
Test [2] addresses recombinant human acetylcholinesterase, rHsAChE (Homo sapiens, UniProt P22303). The test can be described thus: biochemical.
Test [3] addresses T1, rSmTAChE. The class given is biochemical.

Chains of the proteins cited; added tags and fusions are not shown. Residues count along the entry.
UniProt A0A3Q0KMM5, 27-661 limits assumed: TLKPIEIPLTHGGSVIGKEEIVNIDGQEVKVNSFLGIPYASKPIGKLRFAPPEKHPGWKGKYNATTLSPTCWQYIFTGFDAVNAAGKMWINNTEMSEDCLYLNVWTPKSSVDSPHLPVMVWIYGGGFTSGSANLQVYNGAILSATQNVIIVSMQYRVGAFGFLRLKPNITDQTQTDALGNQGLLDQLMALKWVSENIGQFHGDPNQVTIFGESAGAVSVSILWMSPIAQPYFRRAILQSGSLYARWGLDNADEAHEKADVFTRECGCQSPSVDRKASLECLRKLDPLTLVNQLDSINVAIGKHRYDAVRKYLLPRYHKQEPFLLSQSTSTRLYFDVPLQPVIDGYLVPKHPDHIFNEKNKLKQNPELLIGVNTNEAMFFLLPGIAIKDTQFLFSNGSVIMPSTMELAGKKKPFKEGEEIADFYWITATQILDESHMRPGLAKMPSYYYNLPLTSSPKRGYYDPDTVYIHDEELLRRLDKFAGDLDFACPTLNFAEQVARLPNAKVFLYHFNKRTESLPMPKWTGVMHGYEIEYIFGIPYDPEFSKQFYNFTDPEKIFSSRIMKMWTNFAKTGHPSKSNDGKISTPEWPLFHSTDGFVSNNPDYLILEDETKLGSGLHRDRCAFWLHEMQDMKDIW
UniProt P22303, 32-614: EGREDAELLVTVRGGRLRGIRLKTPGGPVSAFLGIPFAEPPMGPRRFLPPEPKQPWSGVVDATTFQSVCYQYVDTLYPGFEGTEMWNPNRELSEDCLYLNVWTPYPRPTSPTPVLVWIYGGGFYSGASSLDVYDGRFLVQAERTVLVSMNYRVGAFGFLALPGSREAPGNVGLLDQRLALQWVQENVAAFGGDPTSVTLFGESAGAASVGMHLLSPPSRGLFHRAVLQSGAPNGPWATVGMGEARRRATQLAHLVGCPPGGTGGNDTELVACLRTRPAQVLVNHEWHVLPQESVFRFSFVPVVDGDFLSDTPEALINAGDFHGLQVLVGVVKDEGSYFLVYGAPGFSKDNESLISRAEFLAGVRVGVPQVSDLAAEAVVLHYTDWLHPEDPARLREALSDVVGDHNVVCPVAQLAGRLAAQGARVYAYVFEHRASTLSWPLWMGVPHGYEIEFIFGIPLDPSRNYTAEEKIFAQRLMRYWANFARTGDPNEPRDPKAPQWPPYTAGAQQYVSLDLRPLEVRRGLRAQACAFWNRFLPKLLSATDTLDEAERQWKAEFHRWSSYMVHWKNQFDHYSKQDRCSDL

Here are results for one molecule from publication PMC12154458, “High-Throughput Screens of Repurposing Hub and DOS Chemical Libraries Reveal Compounds with Novel and Potent Inhibitory Activity Against the Essential Non-Neuronal Acetylcholinesterase of Schistosoma mansoni (SmTAChE)” (International Journal of Molecular Sciences, 2025).

As a reminder, the inhibition is the drop in the measured response relative to a control, in per cent. One may read the IC50 as the concentration that gives 50% inhibition.

In the case of `CCCCCCCCCCCCCCCC[n+]1ccccc1` [Cetylpyridinium chloride, reference compound], the inhibition at 20 µM on rSmTAChE [1] came out at 71%. Besides, in test [2], the “Data Mode (curve class), rHsAChE” value was “decreasing” and the “SI (Sm/Hs)” value came out at 5.01. Further, the concentration for half-maximal inhibition (IC50) in test [2] (IC50 (µM) rHsAChE) was 1.47 µM. On rSmTAChE [3], the “Data Mode (curve class), rSmTAChE” value is “decreasing”.
